According to PubChem BioAssay AID2685 (National Center for Advancing Translational Sciences (NCATS), 2010):
Out of some 320,000 compounds screened, about 2,100 (0.66%) were called active. This list was built around the results that the source calls inconclusive (neither active nor inactive); the mix of calls is not that of the screen. Calls follow the shape of the dose curve; as a rule, active = well fitted inhibition curve with a large enough effect in the signal ratio, with a control signal flat (not every such curve was filed as active); inconclusive = small, poorly fitted or top-dose-only effect, or effect the other way, or a change in a side signal; inactive = flat fitted curve, though single readings scatter; the % refers to the signal ratio. Where the call is inconclusive, the potency comes from a doubtful curve fit.

Assay: qHTS Assay for Lipid Storage Modulators in Drosophila S3 Cells
Settings: BODIPY lipid droplet fluorescence, 18-24 h, cells fed with added oleic acid; lipid storage change, negative = inhibition: at 46.1 µM (top of the series) unless noted
Method in brief: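 Laser-scanning cytometry quantifies lipid droplet accumulation (500–530 nm total intensity; droplet/cell object ratio) in oleic acid-fed (400 uM added) Drosophila S3 cells treated with a concentration series. 20 uM Triacsin C defined 100% inhibition.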
% is scaled to controls: 0 for no effect and ±100 for the full control effect; potency is read from the fitted curve at half-maximal effect.

| Compound | Potency | lipid storage change, negative = inhibition |
| --- | --- | --- |
| N#CCc1ccc(NC(=O)/C=C/c2ccc([N+](=O)[O-])o2)cc1 | inconclusive: 29.1 µM [falling, single point] |  |
| O=C(Nc1cc2c(cc1Br)OCCCO2)c1cccnc1 |  | inconclusive: -11.3% |
| COc1ccccc1C(=O)NCC(=O)NCCCN1CCOCC1 |  | inconclusive: 6.31% |
| Cc1nc(SCC(=O)NC(C)(C#N)C2CC2)c2c(-c3cccs3)csc2n1 (stereo not drawn) |  | inconclusive: -25.7% |
| CN(C(=O)COC(=O)CSc1ccc([N+](=O)[O-])cc1)c1ccccc1 |  | inconclusive: 54.7% |
| CC1CCN(C(=O)Cn2nnc(-c3ccccc3)n2)CC1 | inconclusive: 0.13 µM [activator, full curve, poor fit] |  |
| CCN(Cc1ccccc1)S(=O)(=O)c1ccc(C(=O)N(CCCN(C)C)c2nc3cc4c(cc3s2)OCCO4)cc1 |  | inconclusive: 43.9% |
| Clc1ccc(Cn2ncc3c(N4CCCCC4)ncnc32)cc1 | inconclusive: 6.51 µM [activator, full curve, poor fit] |  |
| CCOc1ccc(C(=O)NCc2ccc3c(c2)OCO3)cc1OCC |  | inconclusive: 44.3% |
| CC(=O)Nc1sc(/C(C#N)=C\c2cccc(Cl)c2)nc1-c1ccc(C)cc1 | inconclusive: 29.1 µM [falling, partial curve, poor fit] |  |
| COc1ccc(NS(=O)(=O)c2ccc3oc4ccccc4c3c2)cn1 | inconclusive: 29.1 µM [rising, single point] |  |
| Cc1ccc(Nc2nc(N)nc(CN3CCN(c4ccccc4F)CC3)n2)cc1 |  | inconclusive: -10.7% |
| OCCCNc1c2c(nc3cc(-c4ccc(Cl)cc4)nn13)CCC2 |  | inconclusive: 8.36% |
| O=C(NCc1ccccc1F)c1cccc(S(=O)(=O)NCc2ccccc2)c1 | inconclusive: 29.1 µM [falling, single point] |  |
| Cc1ccc(NC(=O)COc2ccc3c(c2)OCO3)c(C)c1 |  | inconclusive: 24.3% |
| COc1ccccc1N(Cc1ccccc1)S(=O)(=O)c1cccc(C(=O)Nc2ncccc2C)c1 |  | inconclusive |
| Cc1ccc(-c2cc(C(=O)NCc3cnn(C)c3C)c3cc(Br)ccc3n2)cc1 |  | inconclusive: -9.09% |
| Brc1ccc(CSc2nnc(-c3cnccn3)n2Cc2ccco2)cc1 |  | inconclusive: 45.5% |
| CC1(C)O[C@@H]2[C@H](O1)[C@@H](COS(=O)(=O)O)O[C@H]2n1cnc2c(N)ncnc21 |  | inconclusive: 52.9% |
| Cc1cccc(C)c1NC(=O)CCCn1nc(C)c2c(C)n(-c3ccccc3)nc2c1=O |  | inconclusive: -38.2% |
| COc1cccc(NC(=O)CN(C)C(=O)c2ccccc2-c2nc3ccccc3s2)c1 |  | inactive |
| O=C(COC(=O)c1cccc(Cl)c1)Nc1ccc2[nH]c(=O)[nH]c2c1 |  | inconclusive: -2.71% |
| CCSc1nsc(NC(=O)Nc2ccc(F)cc2F)n1 |  | inactive |
| CCCCOc1ccc(C(=O)Oc2cccnc2)cc1 | inconclusive: 1.84 µM [falling, partial curve] |  |
| CC1CCCN(C(=O)CSc2nnc(-c3ccc(S(=O)(=O)N4CCOCC4)cc3)n2C)C1 (stereo not drawn) |  | inconclusive: -3.94% |
| CCOc1ccc(-c2cc(C(=O)NCCCN3CCOCC3)c3ccccc3n2)cc1 |  | inconclusive: 28.8% |

| Compound | Potency | lipid storage change, negative = inhibition |
| --- | --- | --- |
| Cn1c(N)c(C(=O)COC(=O)CCc2ccccc2)c(=O)n(C)c1=O | inconclusive: 3.66 µM [falling, single point] |  |
| COc1ccc2nc(SCC(=O)NN)cc(C)c2c1 |  | inconclusive: -12.7% |
| COc1cc2[nH]c(=O)c(C(=O)NCc3ccccc3Cl)c(O)c2cc1OC | inconclusive: 29.1 µM [falling, partial curve, poor fit] |  |
| CC(C)(C)c1nc(N2CCN(C(=O)c3ccco3)CC2)c2nnn(Cc3ccccc3)c2n1 |  | inconclusive: -21.2% |
| CN(C)C(=O)c1cccn(Cc2ccc(C(F)(F)F)cc2)c1=O |  | inconclusive: 5.31% |
| COC(=O)c1sc(NC(=O)C2CCCO2)c(C(=O)OC)c1C (stereo not drawn) |  | inconclusive: -20.9% |
| CC(=O)Nc1cc(C(=O)N2CCc3ccccc3C2)ccc1Sc1ccc(F)cc1 |  | inconclusive: 82.3% |
| O=C(Cn1cnc2c(cnn2-c2ccccc2)c1=O)Nc1cc(S(=O)(=O)N2CCOCC2)ccc1Cl | active: 25.9 µM |  |
| O=C(NCCCN1CCN(c2ccccc2F)CC1)Nc1ccc(F)cc1 |  | inconclusive: 31% |
| Cc1ccccc1NC(=O)c1ccc(CN2CCC(Cc3ccccc3)CC2)cc1 |  | inconclusive: 6.38% |
| O=C(Cn1cccn1)c1ccccc1 |  | inconclusive: 15.7% |
| CCCC(=O)Nc1ccc(C)c(O)c1 | inconclusive: 7.31 µM [falling, partial curve, poor fit] |  |
| COc1ccc(Nc2nc(N(C)c3ccccc3)nc(N)c2[N+](=O)[O-])cc1 |  | inconclusive: 3.38% |
| COc1ccc(OC)c(/C=C2\SC(=S)N(Cc3cccnc3)C2=O)c1 |  | inconclusive: -9.57% |
| O=C(NCN1CCc2ccccc2C1)c1ccccc1 |  | inactive |
| CCOc1ccc(CCNC(=O)COC(=O)c2nc3nc(C)cc(C)n3n2)cc1OCC |  | inconclusive: -10.9% |
| O=C(CC1Sc2ccccc2NC1=O)NNC(=O)Nc1ccc(Cl)cc1 (stereo not drawn) | inconclusive: 2.31 µM [activator, single point] |  |
| Cc1cc(N=Cc2c(O)ccc3ccccc23)no1 |  | inconclusive: -1.71% |
| O=S(=O)(Cc1cc(Sc2ccccc2)nc(-c2ccccc2)n1)c1ccccc1 | inconclusive: 6.51 µM [activator, single point] |  |
| CSc1ccc(/C=N/n2c(C)nc3ccccc3c2=O)cc1 |  | inconclusive: -51.1% |
| COCCNC(=O)C(c1cccs1)N(C(=O)Cn1nnc2ccccc21)c1cccc(C)c1 (stereo not drawn) |  | inconclusive: 6.69% |
| Cc1ccc2c(c1)N(C(=O)CCC(=O)NCc1cccc(Br)c1)CC(C)O2 (stereo not drawn) | inconclusive: 20.6 µM [falling, single point] |  |
| O=C(O)c1ccc(CN2C(=O)CSC2=S)cc1 |  | inconclusive: 1.97% |
| Cn1c(SCC(=O)N2c3ccccc3CCc3ccccc32)nnc1-c1cc2ccccc2cc1O |  | inconclusive: -27.3% |
| CCCCN(C(=O)C(C)N1C(=O)c2ccccc2C1=O)c1c(N)n(CCCC)c(=O)[nH]c1=O (stereo not drawn) |  | inconclusive: -3.15% |
| COc1ccccc1NS(=O)(=O)c1ccc(C)c(C(=O)NCc2cccnc2)c1 | inconclusive: 8.2 µM [activator, partial curve, poor fit] |  |

| Compound | Potency | lipid storage change, negative = inhibition |
| --- | --- | --- |
| O=S1(=O)CCOC[C@H](CC2CCCCC2)N1Cc1cccc(F)c1 |  | inconclusive: 8.24% |
| Clc1ccc(N2CCOCC2)nn1 |  | inconclusive: -5.83% |
| CC(C)Oc1c(Br)cc(Br)cc1/C=N/NC(N)=S |  | inconclusive: -13.1% |
| COc1cccc(OC)c1C(=O)NC(=O)Nc1c(F)cc(F)cc1F |  | inconclusive: -6.89% |
| Cn1cc(S(=O)(=O)N2CCOCC2)cc1C(=O)NCCc1ccccc1 |  | inconclusive: 35.4% |
| O=C(c1cncc(Br)c1)N1CCN(c2ccc([N+](=O)[O-])cc2)CC1 | inconclusive: 11.6 µM [rising, partial curve, poor fit] |  |
| COCCN(C(=O)COC(=O)c1cc2ccccc2cc1OC)c1c(N)n(Cc2ccccc2)c(=O)[nH]c1=O |  | inconclusive |
| CC1(C)NC(C)(C)c2nonc2/C1=N\O |  | inconclusive: -1.83% |
| CCOc1ccc(N(C(=O)c2snc(C(N)=O)c2N)C(CC)C(=O)NC2CCCC2)cc1 (stereo not drawn) |  | inconclusive: 43.1% |
| COc1ccc2oc(C(=O)Nc3nccs3)c(C)c2c1 |  | inconclusive: 29.8% |
| COc1ccc2cnnc(SCC(=O)Nc3ccccc3)c2c1OC |  | inconclusive: 30.4% |
| COc1ccc(S(=O)(=O)n2cnc3cc(C)c(C)cc32)cc1 | inconclusive: 14.6 µM [activator, partial curve] |  |
| COc1ccc(NC(=O)C2C3CCC4C(CCC32)C4(Cl)Cl)cc1 (stereo not drawn) |  | inconclusive: 62.4% |
| COC(=O)C(O)(NC(=O)OCc1ccccc1)C(F)(F)F (stereo not drawn) | inconclusive: 29.1 µM [falling, single point] |  |
| CC(=O)c1ccc(-c2ccc(C(=O)NC3CCCCCC3)o2)cc1 |  | inconclusive: 31.3% |
| COc1ccc(C2CC(c3cccs3)=NN2C(=O)c2ccc(Br)o2)cc1 (stereo not drawn) | inconclusive: 29.1 µM [cytotoxic, single point] |  |
| CSc1ncccc1C(=O)OCC(=O)c1ccccc1Br |  | inconclusive: -12.5% |
| Cc1nn(C)c(C)c1CN(C)C(=O)c1cnn2c1NC(c1ccccc1)CC2C(F)(F)F (stereo not drawn) |  | inconclusive: 58.4% [activator] |
| O=C(NNc1ncccc1Cl)c1c(Cl)cccc1Cl |  | inconclusive: -17.9% |
| O=C(N/N=C/c1ccncc1)c1cc2ccccc2o1 | inconclusive: 0.0046 µM [activator, full curve, poor fit] |  |
| CC(C(=O)Nc1ccccc1C(=O)N1CCOCC1)N(c1ccc(Cl)cc1)S(C)(=O)=O (stereo not drawn) |  | inconclusive: -10.3% |
| N#C/C(N=Nc1ccccc1O)=N\Nc1ccccc1O |  | inconclusive: -100% |
| COc1cccc(CNC(=O)c2cc3c(C)nc4ccccc4c3o2)c1 |  | inconclusive: -9.04% |
| C/C(=N\Nc1cc(C)nc(NCc2ccccc2)n1)c1cccc([N+](=O)[O-])c1 |  | inconclusive: -10.1% |
| O=C(Nc1nncs1)c1cccc(S(=O)(=O)N2CCc3ccccc32)c1 |  | inconclusive: -14.1% |
| CN1C(=O)C2ON(c3ccccc3)C(c3cccs3)C2C1=O (stereo not drawn) | inconclusive: 6.51 µM [falling, single point] |  |

Five consecutive compounds out of the list so far, for reference:

| Compound | Potency | lipid storage change, negative = inhibition |
| --- | --- | --- |
| COc1ccc(C2CC(c3cccs3)=NN2C(=O)c2ccc(Br)o2)cc1 (stereo not drawn) | inconclusive: 29.1 µM [cytotoxic, single point] |  |
| CSc1ncccc1C(=O)OCC(=O)c1ccccc1Br |  | inconclusive: -12.5% |
| Cc1nn(C)c(C)c1CN(C)C(=O)c1cnn2c1NC(c1ccccc1)CC2C(F)(F)F (stereo not drawn) |  | inconclusive: 58.4% [activator] |
| O=C(NNc1ncccc1Cl)c1c(Cl)cccc1Cl |  | inconclusive: -17.9% |
| O=C(N/N=C/c1ccncc1)c1cc2ccccc2o1 | inconclusive: 0.0046 µM [activator, full curve, poor fit] |  |
